According to PMC10726481 (ACS Medicinal Chemistry Letters, 2023):

Test: general procedure: Fmoc solid-phase peptide synthesis; 2-CT-Cl resin
Settings: whole synthesis; for isolated yield: overall

Row | Substance | isolated yield [%] | final HPLC purity (% Area) [%]
1 | D-Phe 1-D-Dap8-Arg10-teixobactin | 8.2 | 
2 | D-Dap 8-Arg10-teixobactin | 11.8 | 99.52
